Measurements from PubChem BioAssay AID330 (DTP/NCI, 2004).
The list does not hold the whole screen: it gathers tests that were run many times, whatever their T/C, doses with no T/C, and many T/C values between a quarter and a half above the control. Other doses and runs of a compound stand elsewhere. T/C: endpoint of the treated group in % of that of the vehicle group. Some doses have a count of surviving animals in place of a T/C: the source holds a T/C of zero for them, seemingly a mark for toxic or unscored doses. Some survivor counts are full or nearly so, which does not show that the dose was tolerated: the source hardly ever lists a survival T/C far under the control, and the zero likely stands for such cases as well. Counts of survivors are from the toxicity check (mostly the fifth day) where no day follows; animals may have died later. Schedules are NCI's codes, taken here to give the interval after Q, in days (D) or hours (H), and the number of doses after X. Some entries were tested several times; the values are given in rising order. For survival time, this PubChem deposit counts one and a half times the control or more as active, and values a quarter to a half above the control carry no call in these data; other NCI protocols may use other cut-offs.

Tested on: P388 leukemia ip, CD2F1 mice, survival T/C
Assay: NCI In Vivo Anticancer Drug Screen. Data for tumor model P388 Leukemia (intraperitoneal) in CD2F1 (CDF1) mice
Conditions: T/C endpoint: median survival time, higher T/C = longer survival
[1] = dose: 42.25 mg/kg/injection, schedule: Q04DX002 (ip), vehicle: suspension in saline
[2] = dose: 84.5 mg/kg/injection, schedule: Q04DX002 (ip), vehicle: suspension in saline
[3] = dose: 200.0 mg/kg/injection, schedule: Q01DX005 (ip), vehicle: saline
[4] = dose: 50.0 mg/kg/injection, schedule: Q01DX005 (ip), vehicle: Klucel (hydroxypropylcellulose) (HPC)
[5] = dose: 200.0 mg/kg/injection, schedule: Q01DX009 (ip), vehicle: Klucel (hydroxypropylcellulose) (HPC)

Which T/C (dose: 21.12 mg/kg/injection, schedule: Q04DX002 (ip), vehicle: suspension in saline, evaluated on day 20) does the source give for `O=c1c(O)c(O)c1=O.[NH2-].[NH2-].[NH2-].[NH2-].[NH2-].[Ru+5]` here?
The T/C was 127 % of control.

What about the T/C (dose: 21.12 mg/kg/injection, schedule: Q04DX002 (ip), vehicle: suspension in saline, evaluated on day 30) of the same molecule?
The T/C was 140 % of control.

What about the T/C [1] of the same molecule?
The T/C was 127 % of control.

And the survivor count [1]?
The survivor count was 5 of 6.

And the survivor count (dose: 84.5 mg/kg/injection, schedule: Q04DX002 (ip), vehicle: saline)?
Its survivor count is 1 of 6.

What about the T/C [2] of the same molecule?
The T/C was 134 % of control.

And the survivor count [2]?
The survivor count was 0 of 6.

And the survivor count (dose: 169.0 mg/kg/injection, schedule: Q04DX002 (ip), vehicle: saline)?
Its survivor count is 0 of 6.

And the survivor count (dose: 338.0 mg/kg/injection, schedule: Q04DX002 (ip), vehicle: saline)?
Its survivor count is 0 of 6.

How did the survivor count (dose: 50.0 mg/kg/injection, schedule: Q01DX009 (ip), vehicle: saline) turn out when `C=CC(C)(C)[N+](C)(C)C` was run?
Its survivor count is 3 of 6.

Which results are given for `COc1ccc(CN2CCC[S+]2C)cc1` (configuration not stated)?
survivor count (dose: 100.0 mg/kg/injection, schedule: Q01DX005 (ip), vehicle: saline): 0 of 5; survivor count [3]: 0 of 5

Which survivor count [4] does the source give for `CCOC(=O)CC(O)(c1ccc2c(c1)OCO2)c1cc(OC)c(OC)c(OC)c1` (configuration not stated) here?
Its survivor count is 6 of 6.

Which survivor count (dose: 100.0 mg/kg/injection, schedule: Q04DX002 (ip), vehicle: saline with Tween-80) does the source give for `O=C(Nc1cccc2ccccc12)OCCN=Cc1ccccc1O.O=C(Nc1cccc2ccccc12)OCCN=Cc1ccccc1O.[Cu]` here?
Its survivor count is 5 of 5.

What about the survivor count (dose: 200.0 mg/kg/injection, schedule: Q04DX002 (ip), vehicle: saline with Tween-80) of the same molecule?
Its survivor count is 5 of 5.

How did the survivor count (dose: 400.0 mg/kg/injection, schedule: Q01DX009 (ip), vehicle: saline with Tween-80) turn out when `N#CC(C#N)=CN` was run?
Its survivor count is 5 of 6.

What does the source list for `CC1CCCC(CC2CCCC[N-]2)[N-]1.CC1CCCC(CC2CCCC[N-]2)[N-]1.[Ni+2].[O-][Cl+3]([O-])([O-])O` (configuration not stated)?
survivor count (dose: 200.0 mg/kg/injection, schedule: Q01DX001 (ip), vehicle: saline): 2 of 6; survivor count (dose: 400.0 mg/kg/injection, schedule: Q01DX001 (ip), vehicle: saline): 0 of 6

`CN(C)CCNC(c1ccccc1)C(O)c1ccccc1` (configuration not stated) was tested. Which survivor count [5] did it give?
The survivor count was 5 of 6.

Which results are given for `O=c1ccc2cc3ccoc3c(OCCCCCCCCCCCCOc3c4occc4cc4ccc(=O)oc34)c2o1`?
survivor count (dose: 50.0 mg/kg/injection, schedule: Q01DX005 (ip), vehicle: saline with Tween-80): 6 of 6; survivor count (dose: 100.0 mg/kg/injection, schedule: Q01DX001 (ip), vehicle: saline with Tween-80): 6 of 6; survivor count (dose: 200.0 mg/kg/injection, schedule: Q01DX001 (ip), vehicle: saline with Tween-80): 6 of 6; survivor count (dose: 400.0 mg/kg/injection, schedule: Q01DX001 (ip), vehicle: saline with Tween-80): 6 of 6

Which results are given for `O=C1CC2(CCCC2)C(=O)N1c1ccccc1O`?
T/C (dose: 100.0 mg/kg/injection, schedule: Q01DX009 (ip), vehicle: Klucel (hydroxypropylcellulose) (HPC)): 127 % of control; T/C [5]: 127 % of control; survivor count (dose: 400.0 mg/kg/injection, schedule: Q01DX009 (ip), vehicle: Klucel (hydroxypropylcellulose) (HPC)): 4 of 6

`O=C(Nc1ccc(N=Nc2ccc(S(=O)(=O)O)cc2)cc1)c1ccc(N=Nc2cc(S(=O)(=O)O)c3ccccc3c2O)cc1` was tested. Which survivor count [3] did it give?
The survivor count was 3 of 6.

For `CC1=C(O)C(=O)C=C2C1=CC=C1[C@@]2(C)CC[C@@]2(C)[C@@H]3C[C@](C)(C(=O)O)CC[C@]3(C)CC[C@]12C`, which survivor count (dose: 3.12 mg/kg/injection, schedule: Q01DX009 (ip), vehicle: suspension in saline) is on record?
Its survivor count is 6 of 6.

And the survivor count (dose: 6.25 mg/kg/injection, schedule: Q01DX009 (ip), vehicle: suspension in saline)?
Its survivor count is 6 of 6.

What about the survivor count (dose: 12.5 mg/kg/injection, schedule: Q01DX009 (ip), vehicle: suspension in saline) of the same molecule?
The survivor count was 5 of 6 and 6 of 6.

And the survivor count (dose: 25.0 mg/kg/injection, schedule: Q01DX009 (ip), vehicle: suspension in saline)?
Its survivor count is 0 of 6 and 2 of 6.

What does the source list for `O=C(NP1(=O)NCc2ccccc2CN1)OC1CCCC1`?
T/C (dose: 12.5 mg/kg/injection, schedule: Q01DX005 (ip), vehicle: Klucel (hydroxypropylcellulose) (HPC)): 147 % of control; survivor count [4]: 5 of 5; survivor count (dose: 100.0 mg/kg/injection, schedule: Q01DX005 (ip), vehicle: Klucel (hydroxypropylcellulose) (HPC)): 5 of 5

How did the survivor count (dose: 100.0 mg/kg/injection, schedule: Q01DX001 (ip), vehicle: Klucel (hydroxypropylcellulose) (HPC)) turn out when `COC(=O)[C@@H]1[C@@H]2O[C@@H]2[C@H]2O[C@H]2[C@H]1C(=O)O` was run?
Its survivor count is 6 of 6.

What about the survivor count (dose: 200.0 mg/kg/injection, schedule: Q01DX001 (ip), vehicle: Klucel (hydroxypropylcellulose) (HPC)) of the same molecule?
The survivor count was 6 of 6.

For `O=C(O)Cc1cccc(S(=O)(=O)F)c1`, which survivor count (dose: 240.0 mg/kg/injection, schedule: Q01DX005 (ip), vehicle: saline with Tween-80) is on record?
Its survivor count is 2 of 6.
